Experimental findings from publication PMC10231130 are described below.

Chains of the proteins cited; added tags and fusions are not shown.
UniProt Q99816: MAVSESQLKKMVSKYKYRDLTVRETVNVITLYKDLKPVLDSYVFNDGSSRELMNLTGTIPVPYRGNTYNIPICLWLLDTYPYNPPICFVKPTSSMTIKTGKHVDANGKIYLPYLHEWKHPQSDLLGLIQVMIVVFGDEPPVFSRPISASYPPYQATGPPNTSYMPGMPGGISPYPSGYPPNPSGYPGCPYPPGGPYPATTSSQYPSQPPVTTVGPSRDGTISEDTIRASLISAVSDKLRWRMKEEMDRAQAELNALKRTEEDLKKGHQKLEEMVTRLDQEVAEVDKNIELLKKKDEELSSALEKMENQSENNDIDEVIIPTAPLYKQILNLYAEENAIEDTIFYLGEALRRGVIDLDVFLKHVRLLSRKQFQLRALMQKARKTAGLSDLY
UniProt P25223: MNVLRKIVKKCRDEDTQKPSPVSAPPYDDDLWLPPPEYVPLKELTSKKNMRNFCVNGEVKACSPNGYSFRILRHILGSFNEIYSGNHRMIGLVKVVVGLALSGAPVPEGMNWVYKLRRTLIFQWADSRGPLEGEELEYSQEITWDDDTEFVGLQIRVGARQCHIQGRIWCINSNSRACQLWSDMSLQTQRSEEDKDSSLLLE
UniProt Q8WUM4: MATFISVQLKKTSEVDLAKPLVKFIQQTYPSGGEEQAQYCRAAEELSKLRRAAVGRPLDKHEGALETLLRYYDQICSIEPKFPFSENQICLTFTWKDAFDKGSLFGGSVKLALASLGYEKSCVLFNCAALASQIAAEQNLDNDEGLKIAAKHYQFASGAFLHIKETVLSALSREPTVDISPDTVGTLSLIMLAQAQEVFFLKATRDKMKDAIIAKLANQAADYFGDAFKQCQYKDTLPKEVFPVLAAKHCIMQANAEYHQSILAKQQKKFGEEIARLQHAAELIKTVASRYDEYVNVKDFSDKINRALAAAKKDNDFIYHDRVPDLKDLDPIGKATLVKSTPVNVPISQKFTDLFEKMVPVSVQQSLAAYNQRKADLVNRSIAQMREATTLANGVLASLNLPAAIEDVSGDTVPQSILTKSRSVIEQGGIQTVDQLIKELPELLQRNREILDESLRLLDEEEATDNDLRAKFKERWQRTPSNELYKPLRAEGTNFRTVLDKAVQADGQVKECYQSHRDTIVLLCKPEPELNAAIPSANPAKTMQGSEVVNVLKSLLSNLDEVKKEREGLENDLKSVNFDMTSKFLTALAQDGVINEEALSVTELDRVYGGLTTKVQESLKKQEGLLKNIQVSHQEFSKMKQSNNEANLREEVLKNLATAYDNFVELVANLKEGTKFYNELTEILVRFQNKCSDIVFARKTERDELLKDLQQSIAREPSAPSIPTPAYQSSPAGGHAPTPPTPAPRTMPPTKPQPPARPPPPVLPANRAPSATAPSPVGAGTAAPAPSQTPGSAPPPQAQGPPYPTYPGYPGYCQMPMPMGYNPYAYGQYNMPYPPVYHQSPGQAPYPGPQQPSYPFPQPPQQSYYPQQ

Assay [1] concerns the target TSG101, HA- or FLAG-tagged, wild type (human) (UniProt Q99816). Description: co-IP.
Assay [2] deals with recombinant RABV M, His-tagged (rabies virus (strain not stated for the construct)) (UniProt P25223). In words: ELISA; both purified. A general note: In an ELISA, binding on a coated surface is turned into a signal by an enzyme label.

These are yes or no findings as the source states them, for the method shown. For some assays here: Binding seen in cells or lysates may run through a third protein. Some entries that bind do so weakly or less than the wild type.

With “rabies virus (RABV) matrix protein (M), HA- or FLAG-tagged (from UniProt P25223 1-202)”, the binding result in assay [1] is given as “binds”.
In the case of “recombinant human Alix, His-tagged (from UniProt Q8WUM4 1-868)”, in assay [2], the binding result is “binds”.
